In patent US11021442B2, “Process for the preparation of freeze-dried 2-[(3-aminopropyl)amino] ethanethiol formulation” (CLEVEXEL PHARMA, priority 2016, dated 2021):

Test: Conversion of disulfide WR-33278 into aminothiol by DTT in gel
Conditions: room temperature

## O[C@H](CS)[C@H](O)CS (racemic) [DTT, dithiothreitol]
5 mM DTT
  Amifostine, purity profile 30 min after addition of DTT: 5.0 % Area
  Aminothiol, purity profile 30 min after addition of DTT: 50.7 % Area
  Disulfide, purity profile 30 min after addition of DTT: 44.3 % Area
41 mM DTT
  Amifostine, purity profile 30 min after addition of DTT: 6.2 % Area
  Aminothiol, purity profile 30 min after addition of DTT: 93.4 % Area
  Disulfide, purity profile 30 min after addition of DTT: 0.4 % Area
81 mM DTT
  Amifostine, purity profile 30 min after addition of DTT: 7.0 % Area
  Aminothiol, purity profile 30 min after addition of DTT: 90.5 % Area
  Disulfide, purity profile 30 min after addition of DTT: 2.6 % Area
